The chains behind the UniProt entries cited, without tags or fusion partners.
UniProt P68559: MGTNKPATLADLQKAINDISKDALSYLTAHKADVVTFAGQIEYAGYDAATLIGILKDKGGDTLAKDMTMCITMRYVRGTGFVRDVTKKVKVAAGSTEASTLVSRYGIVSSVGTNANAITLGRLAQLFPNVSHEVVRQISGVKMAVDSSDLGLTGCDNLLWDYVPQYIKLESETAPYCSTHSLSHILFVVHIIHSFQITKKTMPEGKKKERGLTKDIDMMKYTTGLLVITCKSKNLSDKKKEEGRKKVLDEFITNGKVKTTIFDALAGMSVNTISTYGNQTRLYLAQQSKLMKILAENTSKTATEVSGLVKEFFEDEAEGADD

According to PMC7936609:

Assays:
[1] = molecular target: importin α3 of the small brown planthopper, recombinantly expressed with a His-tag (small brown planthopper Laodelphax striatellus); test: co-IP; protein G beads with anti-His monoclonal antibody and His-tagged recombinant protein (E. coli supernatant), then total proteins from 4th-instar viruliferous planthoppers (PBS pH 7.2) at 4 °C overnight; Western blot; pET28a expression products as negative control
[2] = molecular target: importin α2 of the small brown planthopper, recombinantly expressed with a His-tag (small brown planthopper Laodelphax striatellus); test: as above
[3] = molecular target: importin α1 of the small brown planthopper, recombinantly expressed with a His-tag (small brown planthopper Laodelphax striatellus); test: as above
[4] = molecular target: importin α3 of the small brown planthopper, recombinantly expressed with a His-tag (small brown planthopper Laodelphax striatellus); test: co-IP; in vitro: protein G beads with anti-His or anti-Flag monoclonal antibody, incubated with 200 μL of His- or Flag-tagged recombinant protein (E. coli supernatant) 15 min at room temperature, then 500 μL of recombinant Flag- or His-tagged target protein at 4 °C overnight; Western blot; pET28a expression products as negative control
[5] = molecular target: importin α2 of the small brown planthopper, recombinantly expressed with a His-tag (small brown planthopper Laodelphax striatellus); test: as above
[6] = molecular target: importin α1 of the small brown planthopper, recombinantly expressed with a His-tag (small brown planthopper Laodelphax striatellus); test: as above

Measured: binding

Rice stripe virus nucleocapsid protein (NP) from viruliferous planthoppers (from UniProt P68559 1-322)
binds: [1] | [2] | [3]

Rice stripe virus nucleocapsid protein (NP), recombinantly expressed with a Flag-tag (from UniProt P68559 1-322)
binds: [4] | [5] | [6]

These are yes or no findings as the source states them, for the method shown. Binding seen in cells or lysates may run through a third protein. Binding calls can cover weak binding; strength is not graded here.
